These results are taken from paper PMC10883971.

Data set [1] relates to TEAD (TEAD1-4, paralog not resolved) + YAP + beta-catenin. As to the kind of experiment: EMSA supershift. Particulars: anti-beta-catenin reduces band, anti-YAP plus anti-beta-catenin displaces band, no ternary binding after siTEAD; 10 mM HEPES pH 8, 50 mM NaCl, 0.1 mM EDTA, 5 mM MgCl2, 2 mM DTT, 5% glycerol, 2 ug poly dG:dC, 4 ug BSA, 5 ug nuclear extract in 20 ul, room temperature; 4.8% gel in TBE; protein in an extract; label: 32P (gamma-32P-ATP). (In EMSA bound probe runs differently from free probe, usually more slowly.)

Data set [2] concerns TEAD (TEAD1-4, paralog not resolved) + YAP. As to the kind of experiment: EMSA supershift. Particulars: siYAP reduces band, anti-YAP supershift; 10 mM HEPES pH 8, 50 mM NaCl, 0.1 mM EDTA, 5 mM MgCl2, 2 mM DTT, 5% glycerol, 2 ug poly dG:dC, 4 ug BSA, 5 ug nuclear extract in 20 ul, room temperature; 4.8% gel in TBE; protein in an extract; label: 32P (gamma-32P-ATP).

Construct, isoform or probe ends are uncertain for at least one entry. Where cells or extracts were used, other partners may take part.

“TTCGATACACTTGTGGAATGTGTTTGATTTGTTAGCCCCG (double strand) [hMCAT 1xGT (TEAD consensus)]”: the binding result in data set [1] and in data set [2] was “binds” each time.
